Assay in all cases: EMSA with supershift
What all share (settings): 10 mM MgCl2, 2 mM ATP, 20 mM beta-glycerophosphate, protein in an extract, label: 32P 5' end
Background: A gel shift assay detects complexes by their altered migration in electrophoresis.

Amino acid sequences for entries named in this document (tags omitted). Residues count along the entry.
UniProt P08047, 2-785: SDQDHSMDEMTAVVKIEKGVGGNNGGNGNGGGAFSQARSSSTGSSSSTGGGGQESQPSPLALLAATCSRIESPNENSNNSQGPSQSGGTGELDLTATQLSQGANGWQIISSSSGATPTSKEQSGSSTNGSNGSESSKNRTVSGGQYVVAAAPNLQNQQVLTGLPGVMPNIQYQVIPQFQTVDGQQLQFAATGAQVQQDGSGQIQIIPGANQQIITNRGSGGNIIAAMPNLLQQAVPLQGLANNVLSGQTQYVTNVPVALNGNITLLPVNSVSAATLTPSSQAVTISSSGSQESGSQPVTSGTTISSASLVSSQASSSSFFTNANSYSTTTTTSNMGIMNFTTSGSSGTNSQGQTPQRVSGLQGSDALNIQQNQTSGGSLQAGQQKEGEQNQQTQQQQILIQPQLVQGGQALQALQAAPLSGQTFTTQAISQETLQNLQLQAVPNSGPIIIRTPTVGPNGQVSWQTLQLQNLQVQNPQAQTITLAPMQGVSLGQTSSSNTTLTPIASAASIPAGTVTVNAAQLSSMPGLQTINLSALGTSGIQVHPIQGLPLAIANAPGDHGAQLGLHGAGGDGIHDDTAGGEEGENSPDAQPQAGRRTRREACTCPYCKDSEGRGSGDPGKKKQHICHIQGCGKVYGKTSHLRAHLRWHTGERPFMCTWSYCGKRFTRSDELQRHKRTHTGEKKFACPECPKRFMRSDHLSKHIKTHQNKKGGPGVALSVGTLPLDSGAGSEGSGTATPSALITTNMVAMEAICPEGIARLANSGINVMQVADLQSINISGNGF
UniProt P25490, whole entry: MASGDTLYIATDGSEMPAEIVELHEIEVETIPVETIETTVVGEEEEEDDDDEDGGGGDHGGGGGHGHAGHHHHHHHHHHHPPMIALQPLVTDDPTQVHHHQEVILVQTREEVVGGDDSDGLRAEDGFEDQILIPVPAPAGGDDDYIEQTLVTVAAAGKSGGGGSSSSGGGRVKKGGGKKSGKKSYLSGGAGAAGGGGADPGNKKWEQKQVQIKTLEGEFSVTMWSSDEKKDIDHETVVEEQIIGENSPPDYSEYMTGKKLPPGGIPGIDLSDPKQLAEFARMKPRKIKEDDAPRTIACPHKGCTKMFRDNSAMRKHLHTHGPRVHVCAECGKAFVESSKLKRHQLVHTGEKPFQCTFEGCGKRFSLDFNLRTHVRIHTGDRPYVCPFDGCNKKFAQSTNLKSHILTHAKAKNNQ

For data set [1], the target named is Sp1 (S-phase/asynchronous HeLa extract) (Homo sapiens (HeLa)) (UniProt P08047).
Data set [2] has as its target Sp1, mitotic or TOPK-treated (linker-phosphorylated) (Homo sapiens (HeLa)) (UniProt P08047).
In data set [3] the target is YY1 (S-phase/asynchronous HeLa extract) (Homo sapiens (HeLa)) (UniProt P25490).
Data set [4] has as its target YY1, mitotic or TOPK-treated (linker-phosphorylated) (Homo sapiens (HeLa)) (UniProt P25490).
Setting [5] is: thymidine (S-phase) extract, kinase buffer, no GST-TOPK.
The mark [6] stands for this setting: mitotic cells treated with 1 uM K252a 10 min, binding partially restored, linker phosphorylation inhibited.
[7] abbreviates: thymidine extract + active GST-TOPK, ATP.

Construct, isoform or probe ends are uncertain for at least one entry. Results from cells or extracts need not show a direct contact. For some of these results: The comparison behind a weaker result is the experiment's own reference, which may not be listed here. For some of these results: At least one verdict was read from the data and is not stated in words by the source.

Take “ATTCGATCGGGGCGGGGCGAGC (double strand) [Sp1 consensus oligo]”: the binding result is reported as “binds” in data set [1] (asynchronous HeLa extract); “binds” in data set [1] (setting [5]); “binds” in data set [2] (setting [6]); “binds more weakly” in data set [2] (nocodazole (mitotic) extract); “binds more weakly” in data set [2] (setting [7]).
Take “GATCCTCGGCCGTCATGGCGCTGCAGGAGGCA (double strand) [H3.2alpha YY1 site oligo]”: the binding result in data set [3] (asynchronous HeLa extract) is “binds”; in data set [3] (setting [5]), “binds”; in data set [4] (setting [6]) it was “binds”; in data set [4] (nocodazole (mitotic) extract) it was “binds more weakly”; in data set [4] (setting [7]), “binds more weakly”.

Values taken from PMC4359306.
